Source: PMC11241769, “Comprehensive Characterization of Phytochemical Composition, Membrane Permeability, and Antiproliferative Activity of Juglans nigra Polyphenols” (International Journal of Molecular Sciences, 2024)

Columns and labels:
[1] = system: A2058 human melanoma cells; assay: in vitro cytostatic (antiproliferative) activity, Alamar Blue (resazurin) assay, A2058; assay type: cell-based; settings: A2058 melanoma cell culture
Method: (§1) For the evaluation of the in vitro antiproliferative activity of the compounds, the cell viability was determined by resazurin (Alamar Blue) assay on MDA-MB 231 breast carcinoma, A2058 melanoma, and HT-29 colon carcinoma cell culture. The control wells were treated only with serum-free medium.
(§2) The cytostatic effect of the compounds was studied on tumor cell cultures in vitro. MDA-MB-231 human breast adenocarcinoma cells were cultured in DMEM medium supplemented with 10% FBS, 2 mM L-glutamine, penicillin–streptomycin antibiotics mixture (50 IU/mL, and 50 μg/mL, respectively), 1 mM sodium pyruvate, and 1% non-essential amino acid mixture. A2058 human melanoma cells, and HT-29 colorectal carcinoma cells were cultured in RPMI medium supplemented with 10% FBS, 2 mM L-glutamine, and penicillin–streptomycin antibiotics mixture (50 IU/mL and 50 μg/mL, respectively). Cell lines were generous gifts from Dr. József Tóvári (Department of Experimental Pharmacology, National Institute of Oncology, Budapest, Hungary).
(§3) All cell cultures were maintained at 37 °C in a humidified atmosphere with 5% CO2. […] After that, cell viability was determined using the Alamar Blue assay. […] Fluorescence intensity in each well was measured using a Synergy H4 multimode microplate reader (BioTek, Winooski, VT); at λex = 530/30 and λem = 610/10 nm. […]

[2] = system: MDA-MB-231 human breast adenocarcinoma cells; assay: in vitro cytostatic (antiproliferative) activity, Alamar Blue (resazurin) assay, MDA-MB 231; assay type: cell-based; settings: MDA-MB 231 breast carcinoma cell culture
Method: as §1, §2, §3

For `CC/C(=C(\c1ccccc1)c1ccc(OCCN(C)C)cc1)c1ccccc1` [Tamoxifen, tamoxifen, reference compound], the IC50 [1] was 1 ± 0.2 µM and the IC50 [2] was 3.4 ± 0.7 µM.
